Assay results: article PMC5173319, “Crenactin forms actin-like double helical filaments regulated by arcadin-2” (eLife, 2016)
Results are given in words; binding and its absence hold for the method and conditions named.

The chains behind the UniProt entries cited, without tags or fusion partners.
UniProt A3MWN5: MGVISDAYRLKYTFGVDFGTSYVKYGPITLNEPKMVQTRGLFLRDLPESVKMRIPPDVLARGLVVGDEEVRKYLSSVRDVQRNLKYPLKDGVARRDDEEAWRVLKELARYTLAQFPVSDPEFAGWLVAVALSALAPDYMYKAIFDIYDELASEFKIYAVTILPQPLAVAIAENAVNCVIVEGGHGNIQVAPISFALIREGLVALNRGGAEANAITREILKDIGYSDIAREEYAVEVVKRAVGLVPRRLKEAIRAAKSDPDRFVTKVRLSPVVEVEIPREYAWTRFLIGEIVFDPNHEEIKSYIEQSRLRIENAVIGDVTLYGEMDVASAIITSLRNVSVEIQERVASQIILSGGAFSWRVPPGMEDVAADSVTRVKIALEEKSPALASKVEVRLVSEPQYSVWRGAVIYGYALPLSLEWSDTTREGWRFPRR

Target: Pyrobaculum calidifontis crenactin (Pyrobaculum calidifontis) (UniProt A3MWN5)
Assay: condition: only with 2 µM arcadin-2 C-terminal peptide; AUC; velocity sedimentation, 2 µM crenactin with 2 µM arcadin-2 C-terminal peptide, 50,000 rpm, 20°C, PBS; both purified

binding: no binding
Substance: Pyrobaculum calidifontis crenactin (from UniProt A3MWN5 1-432)
